Experimental data reported in patent US10316061B2, “Synthesis of cell penetrating peptides for drug delivery and stem cell applications” (Temple University-Of The Commonwealth System of Higher …, priority 2014, dated 2019).
At least one compound was matched to its structure with a doubt left.

Tested on: ReNcell VM cells
Assay: Immunocytochemistry of Tubb3 / MAP2 protein expression in 4-week differentiated ReNcell VM
Assay type: cell-based, human
Procedure: FIG. 15. Tubb3 Expression Analysis for 4-Week Differentiated ReNcell VM Cells. ReNcell VM cells were treated with neural stem cell culture medium (control), RA (retinoic acid), RA-PepB, C16-PepB, LiCl, and IFNγ (interferon gamma). Tubb3 proteins expressed in the cells were stained as green and cell nuclei were stained with blue (DAPI).
FIG. 16. MAP2 Expression Analysis for 4-Week Differentiated ReNcell VM Cells. ReNcell VM treated with cell culture media (control), RA, RA-PepB, C16-PepB, LiCl, and IFNγ (interferon gamma). MAP2 proteins expressed in the cells were stained as green and cell nuclei were stained with blue (DAPI) FIG. 17. Quantitation of Immunocytochemistry Results for Tubb3/MAP2 Proteins. Relative numbers of the cells expressing Tubb3 and MAP2 proteins were counted and normalized to the control group (*P<0.05, **P<0.01).
The proteins expressed in ReNcell VM cells were visualized with antibodies to study the protein expression by the differentiation of the stem cells in the presence of various soluble factors including RA-PepB and C16-PepB. […] As is shown in FIGS. 15 and 16, Tubb3 or MAP2 expression levels in 4-week differentiated ReNcell VM cells were evaluated via immunocytochemistry (ICC). Protein expression, after antibody staining, was visualized and quantitatively compared by counting Tubb3 or MAP2-positive cells. […]

With `CC1=C(/C=C/C(C)=C/C=C/C(C)=C/C(=O)O)C(C)(C)CCC1` [RA, Retinoic acid] the “MAP2 expression compared to the control (ICC, positive cell count)” value was “Statistically significant increases” and the “Tubb3 expression compared to the control (ICC, positive cell count)” value was “statistically significant increases”.
